The assay in a line: qHTS Assay for Lipid Storage Modulators in Drosophila S3 Cells.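 For cell number change: cells counted by Cell Tracker Red CMTPX staining in the red channel.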 Conditions: BODIPY lipid droplet fluorescence, 18-24 h; for cell number change: measured here: cell count max response, cells fed with added oleic acid. The method in brief:
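Drosophila S3 cells got compounds at several concentrations plus oleic acid (400 uM solution). Laser-scanning cytometry with 488 nm excitation read lipid droplets at 500-530 nm and cells at 575-640 nm. Percent activity was relative to 20 uM Triacsin C.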
(Quantitative high-throughput screening tests each substance at several concentrations.)

[1] abbreviates: measured here: lipid fluorescence (Fed channel) AC50, cells fed with added oleic acid.
[2] abbreviates: measured here: cell number channel AC50, cells fed with added oleic acid.

Structures are written as SMILES. The list shows a part of the results. Shown are side measurements of this screen, not its main read-out; they come without a call. Compounds called inactive in the main read-out are mostly missing here. Words in brackets tell the shape of the fitted curve; partial curves, single points and poor fits give uncertain potencies.

The values below come from PubChem BioAssay AID2685 (National Center for Advancing Translational Sciences (NCATS), 2010).

One may read the AC50 as the concentration at which the activity in the assay is half-maximal.

In the case of `O=C(Nc1cccc(OC(=O)N2CCCCC2)c1)N1CCCCC1`, the cell number change was found to be 15.5%. Moreover, under setting [1], the AC50 is 13 µM [rising, partial curve, poor fit].
As for `Cn1c(O)c(C(=O)c2ccccc2Cl)c(=O)n(C)c1=O`, the cell number change was -0.471%. Further, the AC50 under setting [1] is 2.06 µM [rising, partial curve, poor fit].
Regarding `COc1ccc(S(=O)(=O)NC(CC(=O)N2CCC3(CC2)OCCO3)C(C)C)cc1` (centres undefined), the cell number change stood at 7.3%.
For the compound `CCn1cc(C(=O)NCc2ccccc2)c2ccccc21`, the cell number change turned out to be 20.9%. The AC50 under setting [1] was 29.1 µM [rising, single point].
As to `CC1=C(C(=O)N2CCC3(CC2)OCCO3)C2(CCC(C)CC2)OC1=O` (centres undefined), under setting [2], the AC50 was 1.46 µM [falling, partial curve].
On to `Cc1cc(=O)[nH]c(SCc2nc3ccccc3c(=O)n2-c2ccccc2C)n1`, for which the cell number change worked out at 10.8%. For the same compound, the AC50 under setting [2] is 6.51 µM [falling, single point]. Besides, the AC50 under setting [1] was 5.8 µM [falling, single point].
For `CCCCCn1c(=O)c(C(=O)NCc2ccncc2)c(O)c2ccccc21`, the cell number change came to 18.6%. In addition, under setting [2], the AC50 was 0.146 µM [rising, full curve, poor fit]. In addition, the AC50 under setting [1] was 3.66 µM [rising, single point].
Consider `CCCOP(=O)(O)c1c([N+](=O)[O-])cc(C(F)(F)F)cc1[N+](=O)[O-]` (tested in a mixture with another compound), for which the cell number change came out at 6.5%. Also, under setting [2], the AC50 is 4.11 µM [falling, partial curve]. Moreover, the AC50 under setting [1] was 7.31 µM [falling, partial curve].
With `CC1CCCCN1CC(O)c1c[nH]c2ccccc12` (centres undefined), the cell number change stood at 12.6%. In addition, the AC50 under setting [1] was 0.0517 µM [rising, full curve, poor fit].
For `Cc1cccc(OC(=O)N2CCOCC2)c1`, the cell number change was determined as 34.1%. Also, the AC50 under setting [2] was 7.31 µM [rising, partial curve, poor fit].
In the case of `Cc1cc(/C=C2/C(=O)NC(=O)N(c3ccc(Br)cc3)C2=O)c(C)n1C`, the cell number change amounted to 17.6%.
As to `c1ccc(SSc2ccccc2)cc1`, the AC50 under setting [2] is 16.4 µM [falling, single point].
For the compound `Clc1ccc(-c2nc3ccc(Cl)cn3c2CN2CCCCC2)cc1`, the cell number change was -30.8%. Besides, the AC50 under setting [1] is 32.6 µM [falling, single point].
With `CCN(CC)CCN=Cc1c(O)n(C2CCCCCC2)c(=O)[nH]c1=O`, the concentration at half-maximal activity (AC50) under setting [1] was 4.11 µM [falling, partial curve].
On to `Cc1cccc(N2CCN(Cc3ccc4c(c3)OCO4)CC2)c1C`, for which the cell number change is -17%. Moreover, the AC50 under setting [1] is 29.1 µM [rising, single point].
For the compound `C[C@H]1O[C@@H](O[C@H]2[C@@H](O)C[C@H](O[C@H]3[C@@H](O)C[C@H](O[C@H]4CC[C@@]5(C)[C@H](CC[C@@H]6[C@@H]5CC[C@]5(C)[C@@H](C7=CC(=O)OC7)CC[C@]65O)C4)O[C@@H]3C)O[C@@H]2C)C[C@H](O)[C@@H]1O`, the cell number change was 7.85%. For the same compound, under setting [1], the AC50 is 6.51 µM [falling, partial curve, poor fit].
For `O=P1(NCc2ccco2)COc2ccccc2OC1`, the cell number change was -3.16%. The AC50 under setting [1] was 6.51 µM [falling, single point].
As to `Cc1cc(NC(=O)COC(=O)c2c(C)nn(Cc3ccccc3Cl)c2Cl)no1`, the cell number change stood at 4.5%. For the same compound, the concentration at half-maximal activity (AC50) under setting [2] was 0.082 µM [rising, full curve, poor fit].
`Cc1ccc(OCC(=O)N2CCN(Cc3cccnc3)CC2)cc1`: the cell number change came out at 18.1%. Besides, the AC50 under setting [1] is 18.4 µM [rising, partial curve, poor fit].
Take `COC(=O)C1=C(c2c(C)noc2C)C[C@@H]2CC[C@H]1N2C(=O)NCCNC(C)=O`: the cell number change was -23.3%.
As to `COc1ccccc1N1CCN(Cc2ccc(SC)cc2)CC1`, the cell number change is -8.5%.
On to `CCCCOc1nc2ccccc2c(=O)n1-c1ccccc1`, for which the cell number change came to 47.4%. Also, the AC50 under setting [2] was 14.6 µM [rising, partial curve, poor fit].
For the compound `O=P(O)(O)C12CC3CC(CC(C3)C1)C2`, the cell number change is -62.6%. Further, the AC50 under setting [2] is 6.51 µM [falling, full curve]. The AC50 under setting [1] is 5.17 µM [falling, full curve].
For the compound `COC(=O)C1=C(c2ccc(OC)c(OC)c2)C[C@@H]2CC[C@H]1N2C(=O)NCc1ccc(F)cc1`, the cell number change was -10.2%. In addition, under setting [1], the AC50 was 6.51 µM [rising, single point].
With `CC(C)Cc1nnc(NC(=O)CCC(=O)N2CCN(CCOC(c3ccccc3)c3ccccc3)CC2)s1`, the cell number change was -10.9%. The AC50 under setting [1] is 32.6 µM [falling, single point].
On to `CCN(CC)c1ccc(N=Cc2c(O)n(-c3ccc(OC)cc3)c(=O)[nH]c2=O)cc1`, for which the cell number change was 37.2%. The AC50 under setting [2] was 2.06 µM [rising, partial curve]. For the same compound, the concentration at half-maximal activity (AC50) under setting [1] is 20.6 µM [rising, single point].
For `O=C(CN1CC(c2ccccc2)CC1=O)Nc1cccc(F)c1` (centres undefined), the cell number change came out at 3.19%. Also, the AC50 under setting [1] was 5.8 µM [rising, partial curve].
`COCCCNC(=O)Cn1cc(/C=C2\C(=O)NC(=O)N(c3ccccc3F)C2=O)c2ccccc21`: the cell number change was -8.33%.
Regarding `COc1ccc(C(=O)c2nc3ccccc3n2C(C)C)cc1`, the cell number change is 22.5%. The AC50 under setting [1] is 29.1 µM [rising, single point].
Take `Clc1cccc(Cl)c1Cl`: the cell number change is 16.6%. For the same compound, the AC50 under setting [1] was 11.6 µM [rising, single point].
Regarding `COc1ccc(-c2cc(C(=O)N3CCC4(CC3)OCCO4)c3ccccc3n2)cc1`, the cell number change turned out to be 13.2%. For the same compound, the AC50 under setting [2] was 0.92 µM [falling, partial curve]. For the same compound, the AC50 under setting [1] was 6.51 µM [falling, single point].
Regarding `COc1cc2c(cc1OC)[C@@H]1C(=O)c3ccc4c(c3O[C@@H]1CO2)C[C@H](C(C)C)O4`, the cell number change is -42.5%. In addition, the AC50 under setting [2] is 0.103 µM [falling, full curve]. The AC50 under setting [1] is 0.082 µM [falling, full curve].
With `CN(C)c1ccc(/C=C/[N+](=O)[O-])cc1`, the cell number change was -47.4%. Further, under setting [2], the AC50 is 18.4 µM [falling, partial curve]. Also, under setting [1], the AC50 was 20.6 µM [falling, partial curve].
As for `CCN(CC)c1ccccc1`, the cell number change was determined as 7.05%.
As for `O=c1c2ccccc2nc(-c2ccco2)n1-c1ccc(Br)cn1`, the cell number change came to 6.65%. The AC50 under setting [1] is 29.1 µM [rising, single point].
